Laboratory results as given in PubChem BioAssay AID2685 (National Center for Advancing Translational Sciences (NCATS), 2010).
Screen size: about 320,000 compounds; about 2,100 (0.66%) were called active. The inconclusive results got no clear call from the source; some entries with a clear call stand among them for comparison. The call rests on the fitted dose curve; in most records, active means well fitted inhibition curve with a large enough effect in the signal ratio, with a control signal flat (not every such curve was filed as active); inconclusive means small, poorly fitted or top-dose-only effect, or effect the other way, or a change in a side signal; inactive means flat fitted curve, though single readings scatter; the % refers to the signal ratio. Potencies beside an inconclusive call are fits to weak or partial responses and may not hold up.

Experiment: qHTS Assay for Lipid Storage Modulators in Drosophila S3 Cells
Details: BODIPY lipid droplet fluorescence, 18-24 h, cells fed with added oleic acid; lipid storage change, negative = inhibition: at 46.1 µM (top of the series) unless noted
How it was run: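 Drosophila S3 cells got compounds at several concentrations plus oleic acid (400 uM solution). Laser-scanning cytometry with 488 nm excitation read lipid droplets at 500-530 nm and cells at 575-640 nm. Percent activity was relative to 20 uM Triacsin C.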
On the % scale 0 is the no-effect control and ±100 the full control effect; potency means the concentration at half of the fitted maximal effect.

Row | Structure (SMILES) | lipid storage change, negative = inhibition | Potency | outcome
1 | O=C(Cc1ncc(C(F)(F)F)cc1Cl)NCCc1ccccn1 | inconclusive: 7.01% | – | –
2 | CCOC(=O)Cc1ccc2sc(-c3ccccc3)nc2c1 | inconclusive: 15.4% | – | –
3 | C=CCc1ccccc1OCCn1ccnc1 | – | inconclusive: 0.58 µM [rising, single point] | –
4 | CCN(CC)c1ccc2c(Cl)cc(=O)oc2c1 | – | inconclusive: 1.03 µM [falling, full curve] | –
5 | COc1ccc(NS(=O)(=O)c2ccc(C)c(NC(=O)NC3CCCCC3)c2)cc1 | inconclusive: 19.4% | – | –
6 | Cc1ccc(C2(C)NC(=O)N(CC(=O)Nc3cc(S(=O)(=O)N4CCOCC4)ccc3C)C2=O)cc1 (stereo not given) | – | inconclusive: 7.31 µM [falling, partial curve, poor fit] | –
7 | Cc1ccc(NC(=O)CC2S/C(=N/N=C3/NC(=O)CS3)NC2=O)cc1 (stereo not given) | inconclusive: -22.4% [at 9.22 µM] | – | –
8 | Cc1cc2cc(CNC(=O)C3CC3)ccc2n1C | – | inconclusive: 7.31 µM [activator, partial curve] | –
9 | N#CCN1CCN(CC(=O)Nc2ccc(OCc3ccccc3)cc2)CC1 | inconclusive: 47.3% | – | –
10 | COc1ccc(-c2nn(-c3ccccc3C)cc2CNC(C)Cn2cncn2)cc1F (stereo not given) | inconclusive: 30.6% | – | –
11 | COc1ccccc1CN(C)C(=O)CN1CCN(C(=O)c2cccs2)CC1 | – | inconclusive: 29.1 µM [falling, single point] | –
12 | COc1ccc(CCn2c(NN)nc3c2c(=O)[nH]c(=O)n3C)cc1 | inconclusive: 24.6% | – | –
13 | Cc1cccc(CC2CC(=O)N(c3ncccn3)C2=O)c1 (stereo not given) | inconclusive: -32.8% | – | –
14 | CC1=C(C(=O)NC2CCCc3c2cnn3-c2cc(F)cc(F)c2)OCCO1 (stereo not given) | – | – | inactive [at 46.1 µM]
15 | CCc1ccc(OCC(=O)N(C)C2CCS(=O)(=O)C2)cc1 (stereo not given) | – | inconclusive: 4.11 µM [falling, single point] | –
16 | COC(=O)c1ccc(Cn2c(O)c(N=O)c3ccccc32)o1 | inconclusive: 60.9% | – | –
17 | CCOc1ccc(NC(=O)c2sc(NC(C)=O)c(C(=O)OC)c2C)cc1 | inconclusive: 33.9% | – | –
18 | CN1CCN(C(=O)/C(=C\c2cccnc2)NC(=O)c2cccc(Br)c2)CC1 | – | inconclusive: 20.6 µM [activator, partial curve] | –
19 | CC12CCC(=O)C=C1CCC1C2C(=O)CC2(C)C1CCC2(O)C(=O)CO (stereo not given) | – | active: 16.4 µM | –
20 | CCn1c(CC(=O)Nc2ccc(F)cc2)nnc1SCC(=O)NC1=NCCS1 | inconclusive: -119% | – | –
21 | COc1ccc(C(=O)NC(=S)NC2CCCCC2)cc1 | – | inconclusive: 4.11 µM [activator, single point] | –
22 | Cc1noc(C)c1S(=O)(=O)NCc1ccc2c(c1)OCO2 | – | inconclusive: 0.103 µM [activator, full curve, poor fit] | –
23 | COCCn1nnnc1C(c1ccc(OC)c(OC)c1)N1CCN(c2nc3ccccc3s2)CC1 (stereo not given) | – | inconclusive: 2.06 µM [activator, partial curve] | –
24 | CN(C)c1ccc(-c2nnn(CC(=O)Nc3ccc4c(c3)OCCO4)n2)cc1 | inconclusive: -25.7% | – | –
25 | Nc1nc(SCc2ccccc2)n[nH]1 | inconclusive: -11.2% | – | –

Row | Structure (SMILES) | lipid storage change, negative = inhibition | Potency | outcome
26 | COc1ccc(Cl)cc1S(=O)(=O)N1CCC(C(=O)N2CCOCC2)CC1 | inconclusive: 34.6% | – | –
27 | C(=NC12CN3CN(CN(C3)C1)C2)c1ccc2c(c1)OCO2 | – | active: 25.9 µM | –
28 | CCCOc1ccc(C(=O)N(CC(C)C)c2c(N)n(Cc3ccccc3)c(=O)[nH]c2=O)cc1 | inconclusive | – | –
29 | COC(=O)c1ccccc1NC(=O)Oc1ccc(C(C)C)cc1 | inconclusive: 31.8% | – | –
30 | CN(Cc1ccc(F)cc1)C(=O)c1cc(S(=O)(=O)N2CCCCC2)ccc1N1CCOCC1 | – | inconclusive: 29.1 µM [rising, single point] | –
31 | COc1cc(/C=N/N2C(=O)CSC2=S)cc(Br)c1O | inconclusive: -93% | – | –
32 | O=C(CCN1C(=O)c2ccccc2C1=O)NCCN1CCOCC1 | inconclusive: -55.9% | – | –
33 | CCOC(=O)c1cc2c(C)n(-c3ccc(N(C)C)cc3)c(C)c2cc(C(=O)OCC)c1=O | inconclusive: 17.6% | – | –
34 | Cc1cccn2cc(-c3cccc(S(=O)(=O)N4CC(C)OC(C)C4)c3)nc12 (stereo not given) | inconclusive: -53.2% | – | –
35 | O=C1N(c2ccccc2)C(c2ccccc2)N2CCCN12 (stereo not given) | – | inconclusive: 29.1 µM [cytotoxic, single point] | –
36 | C=CCc1c(C)nn(CC(=O)O)c1-c1ccccc1 | – | inconclusive: 3.26 µM [falling, single point] | –
37 | CS(=O)(=O)N(CC(=O)NCCSCc1cccc(Cl)c1)c1ccc2c(c1)OCO2 | – | inconclusive: 0.92 µM [falling, full curve] | –
38 | CC[n+]1c(C)sc2cc(OC)ccc21 | – | inconclusive: 6.51 µM [falling, single point] | –
39 | O=C(O)c1ccccc1C(=O)Nc1ccc(Oc2cccc(C(F)(F)F)c2)nc1 | inconclusive: 16.8% | – | –
40 | On1nnc2ccc3ccccc3c21 | inconclusive: -10.2% | – | –
41 | Cc1cccc(N2CCN(C(=S)Nc3ccc4nc(N5CCN(C)CC5)cc(C)c4c3)CC2)c1C | – | inconclusive: 4.61 µM [falling, single point] | –
42 | O=C(NCC1CCCO1)C(c1cccs1)N(C(=O)c1ccc(-c2ccccc2)[nH]1)C1CCCC1 (stereo not given) | – | inconclusive: 29.1 µM [falling, single point] | –
43 | CCc1cccc(N(C(=O)c2csnn2)C(C(=O)NC2CCCC2)c2cccnc2)c1 (stereo not given) | inconclusive: 13.5% | – | –
44 | CC1CCN(CCCNC(=O)CN2C(=O)CSc3ccc(S(=O)(=O)N4CCOCC4)cc32)CC1 | – | inconclusive: 0.58 µM [falling, single point] | –
45 | COc1ccccc1-c1nnc(SCC(=O)Nc2nc(-c3ccccc3)cs2)n1C | inconclusive: 8.49% | – | –
46 | CC1(C)C2CCC1(C)C(OC(=O)C[n+]1ccccc1)C2 (stereo not given) | inconclusive: -25.9% | – | –
47 | CC1CCN(S(=O)(=O)c2nnc(NC(=O)COc3ccccc3)s2)CC1 | inconclusive: 17.5% | – | –
48 | COc1ccc(NC(=O)c2cccc(-n3cnnn3)c2)cc1 | – | inconclusive: 29.1 µM [falling, single point] | –
49 | O=C(Nc1cccc(-c2nn[nH]n2)c1)c1ccc(Cl)s1 | – | inconclusive: 6.51 µM [activator, single point] | –
50 | COc1ccc(-c2sc3ccccc3c2C#CCO)cc1 | – | inconclusive: 0.146 µM [falling, full curve, poor fit] | –

Three compounds out of the list, sorted by count of non-hydrogen atoms, rising.
Row | Structure (SMILES) | lipid storage change, negative = inhibition | Potency | outcome
38 | CC[n+]1c(C)sc2cc(OC)ccc21 | – | inconclusive: 6.51 µM [falling, single point] | –
35 | O=C1N(c2ccccc2)C(c2ccccc2)N2CCCN12 (stereo not given) | – | inconclusive: 29.1 µM [cytotoxic, single point] | –
44 | CC1CCN(CCCNC(=O)CN2C(=O)CSc3ccc(S(=O)(=O)N4CCOCC4)cc32)CC1 | – | inconclusive: 0.58 µM [falling, single point] | –

Additional records

Row | Structure (SMILES) | lipid storage change, negative = inhibition | Potency | outcome
51 | N#CC1(P(=O)(c2ccccc2)c2ccccc2)CCCC1 | inconclusive: -11.1% | – | –
52 | CCc1nnc(NC(=O)CSc2nc3cc4c(cc3cc2CC)OCCO4)s1 | inconclusive: 41.7% | – | –
53 | O=C(CN1C(=O)NC2(CCCCC2)C1=O)NCCc1c[nH]c2ccccc12 | inconclusive: 66.3% | – | –
54 | CSCCC1NC(=O)NC1=O (stereo not given) | – | inconclusive: 5.8 µM [falling, partial curve, poor fit] | –
55 | O=C(COc1ccc(-n2cnnn2)cc1)Nc1ccccc1OC(F)F | – | inconclusive: 0.0046 µM [falling, full curve, poor fit] | –
56 | O=C(CCNS(=O)(=O)c1ccccc1F)N1CCN(C(c2ccccc2)c2ccccc2)CC1 | – | active: 23.1 µM | –
57 | O=C1CC(N2CCN(C/C=C/c3ccccc3)CC2)C(=O)N1Cc1ccc(N2CCCC2=O)cc1 (stereo not given) | – | inconclusive: 0.116 µM [falling, single point] | –
58 | COc1cc(NC(=O)C23CC4CC(C2)CC(n2cnc([N+](=O)[O-])n2)(C4)C3)cc(OC)c1 | inconclusive: 18.8% | – | –
59 | O=C(NNC(=O)c1cccs1)c1ccncc1 | – | inconclusive: 3.66 µM [falling, single point] | –
60 | CCOC(=O)C1Cc2c([nH]c3ccccc23)C(C)N1 (stereo not given) | – | inconclusive: 0.731 µM [activator, full curve, poor fit] | –
61 | CCC(NC(=O)c1cc(COc2ccc(OC)cc2Cl)on1)c1ccncc1 (stereo not given) | inconclusive: 4.22% | – | –
62 | Cc1ccc(C(=O)C(OC(=O)c2cnccn2)c2ccccc2)cc1 (stereo not given) | inconclusive: -34% [at 0.369 µM] | – | –
63 | COc1cc(/C=N/Nc2nncn2N)ccc1OCc1c(C)no[n+]1[O-] | – | inconclusive: 29.1 µM [cytotoxic, single point] | –
64 | C/C(=N\NC(=O)COc1ccccc1-c1ccccc1)c1ccccn1 | inconclusive: -33.9% | – | –
65 | O=C1c2ccccc2C(=O)N1Cc1ccccc1F | – | active: 29.1 µM | –
66 | Cc1ccccc1-n1ncc2c1CC(C)(C)CC2NC(=O)CCN1CCCCC1=O (stereo not given) | inactive: -16.5% | – | –
67 | Cc1ccc(C(=O)N2CCOCC2)cc1S(=O)(=O)Nc1cccc(C)c1C | inconclusive: -4.91% | – | –
68 | CC1CCN(CC(=O)Nc2ccccc2C#N)CC1 | inconclusive: 8.58% | – | –
69 | O=C(Oc1ccc(-c2cnc3ccccc3n2)cc1)c1ccc(Cl)c([N+](=O)[O-])c1 | – | inconclusive: 0.411 µM [falling, full curve, poor fit] | –
70 | CSCCC(NC(=O)c1ccc(=O)n(C)n1)c1nc2ccccc2[nH]1 (stereo not given) | – | inconclusive: 29.1 µM [activator, single point] | –
71 | O=C(CCCNC(=O)c1ccc(Cl)cc1)Nc1ccccc1C(F)(F)F | – | inconclusive: 8.2 µM [activator, partial curve] | –
72 | COc1cc(C(=O)NCc2ncccc2C)ccc1OC1CCN(C(C)=O)CC1 | inconclusive: 22.1% | – | –
73 | Cc1cc2oc(=O)cc(CN3CCOCC3)c2cc1O | inconclusive: -61.3% | – | –
74 | CC(C)CN(C(=O)COC(=O)CCc1nc2ccccc2s1)c1c(N)n(Cc2ccccc2)c(=O)[nH]c1=O | – | inconclusive: 29.1 µM [falling, single point] | –
75 | C/C(=N\NC(=O)c1cccc(S(=O)(=O)N2CCOCC2)c1)c1ccc(O)cc1 | inconclusive: 7.8% | – | –

Structural class, those above with a nitro group on carbon
Row | Structure (SMILES) | lipid storage change, negative = inhibition | Potency | outcome
58 | COc1cc(NC(=O)C23CC4CC(C2)CC(n2cnc([N+](=O)[O-])n2)(C4)C3)cc(OC)c1 | inconclusive: 18.8% | – | –
69 | O=C(Oc1ccc(-c2cnc3ccccc3n2)cc1)c1ccc(Cl)c([N+](=O)[O-])c1 | – | inconclusive: 0.411 µM [falling, full curve, poor fit] | –
